For at least one compound, name, drawing or mass did not settle the structure.
What was measured:
[1] = tested on: autoproduction of cortisol; experiment: dexamethasone inhibition test: serum cortisol the morning after low oral doses of dexamethasone; conditions: men WHR >1.0 vs WHR <1.0; low doses between 0.05 and 0.5 mg, tablet at 22.00, serum cortisol at 8.00 next morning
[2] = tested on: production of cortisol; conditions: 1 mg dexamethasone; belly fat women vs evenly fat women and standard values; cited from earlier work

SMILES: C[C@@H]1C[C@H]2[C@@H]3CCC4=CC(=O)C=C[C@]4(C)[C@@]3(F)[C@@H](O)C[C@]2(C)[C@@]1(O)C(=O)CO [dexamethasone]
- inhibition of the autoproduction of cortisol in belly fat individuals compared with the others [1]: significantly inferior inhibition
- difference in inhibitory effect on the production of cortisol between groups [2]: No difference in inhibitory effect
